Results are given in words; binding and its absence hold for the method and conditions named. In cells and extracts the contact can be indirect. These calls come from enrichment with a bait or labelling near it, and not all partners need be listed.
Biological target: T1, gC1qR/p32 from tumor cell extracts (human, UniProt Q07021 74-282)
T1 construct: mature; From xenograft extracts an additional 75 kD band was also identified as gC1qR/p32; also called gC1q/p32 receptor; p32/p33/gC1qR/HABP1
T1 sequence (looked up): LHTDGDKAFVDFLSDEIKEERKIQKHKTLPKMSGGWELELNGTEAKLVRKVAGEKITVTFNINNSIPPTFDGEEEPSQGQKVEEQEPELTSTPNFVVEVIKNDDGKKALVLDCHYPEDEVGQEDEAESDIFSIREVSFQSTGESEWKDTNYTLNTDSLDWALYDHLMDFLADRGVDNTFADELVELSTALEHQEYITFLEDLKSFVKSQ
Experiment: pull-down with biotinylated peptide from MDA-MB-435 cell and xenograft extracts; silver stain, mass spectrometry, immunoblot

For CGNKRTRGC (biotinylated; cyclic peptide with a disulfide bond) [biotinylated Lyp-1 peptide], the binding was “binds”.
